According to the supplement of paper PMC12067093, “Discovery and optimisation of a covalent ligand for TRIM25 and its application to targeted protein ubiquitination” (Chemical Science, 2025):
The list shows a part of the results.

Sequences of proteins named here, by UniProt entry; tags and fusion partners are left off. A change or cut given only in a name is not applied to a line headed by its entry.
UniProt Q7Z2T5: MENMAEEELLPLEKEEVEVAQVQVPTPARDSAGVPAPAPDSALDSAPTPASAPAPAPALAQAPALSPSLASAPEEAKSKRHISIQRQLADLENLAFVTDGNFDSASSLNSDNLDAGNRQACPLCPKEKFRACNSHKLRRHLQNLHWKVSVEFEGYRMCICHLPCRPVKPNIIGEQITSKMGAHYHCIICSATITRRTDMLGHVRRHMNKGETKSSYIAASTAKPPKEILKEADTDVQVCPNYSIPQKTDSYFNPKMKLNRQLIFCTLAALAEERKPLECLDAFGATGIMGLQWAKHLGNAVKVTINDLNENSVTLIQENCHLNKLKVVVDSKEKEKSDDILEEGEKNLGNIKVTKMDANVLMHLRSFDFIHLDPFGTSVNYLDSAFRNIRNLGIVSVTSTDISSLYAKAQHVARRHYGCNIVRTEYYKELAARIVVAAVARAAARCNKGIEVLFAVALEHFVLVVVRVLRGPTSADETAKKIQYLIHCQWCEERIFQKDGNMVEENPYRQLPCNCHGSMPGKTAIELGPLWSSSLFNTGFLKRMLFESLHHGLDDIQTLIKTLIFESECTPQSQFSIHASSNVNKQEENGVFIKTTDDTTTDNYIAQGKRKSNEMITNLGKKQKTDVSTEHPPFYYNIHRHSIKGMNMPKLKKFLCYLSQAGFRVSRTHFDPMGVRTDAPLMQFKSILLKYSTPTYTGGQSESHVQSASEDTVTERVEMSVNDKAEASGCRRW
UniProt O15164: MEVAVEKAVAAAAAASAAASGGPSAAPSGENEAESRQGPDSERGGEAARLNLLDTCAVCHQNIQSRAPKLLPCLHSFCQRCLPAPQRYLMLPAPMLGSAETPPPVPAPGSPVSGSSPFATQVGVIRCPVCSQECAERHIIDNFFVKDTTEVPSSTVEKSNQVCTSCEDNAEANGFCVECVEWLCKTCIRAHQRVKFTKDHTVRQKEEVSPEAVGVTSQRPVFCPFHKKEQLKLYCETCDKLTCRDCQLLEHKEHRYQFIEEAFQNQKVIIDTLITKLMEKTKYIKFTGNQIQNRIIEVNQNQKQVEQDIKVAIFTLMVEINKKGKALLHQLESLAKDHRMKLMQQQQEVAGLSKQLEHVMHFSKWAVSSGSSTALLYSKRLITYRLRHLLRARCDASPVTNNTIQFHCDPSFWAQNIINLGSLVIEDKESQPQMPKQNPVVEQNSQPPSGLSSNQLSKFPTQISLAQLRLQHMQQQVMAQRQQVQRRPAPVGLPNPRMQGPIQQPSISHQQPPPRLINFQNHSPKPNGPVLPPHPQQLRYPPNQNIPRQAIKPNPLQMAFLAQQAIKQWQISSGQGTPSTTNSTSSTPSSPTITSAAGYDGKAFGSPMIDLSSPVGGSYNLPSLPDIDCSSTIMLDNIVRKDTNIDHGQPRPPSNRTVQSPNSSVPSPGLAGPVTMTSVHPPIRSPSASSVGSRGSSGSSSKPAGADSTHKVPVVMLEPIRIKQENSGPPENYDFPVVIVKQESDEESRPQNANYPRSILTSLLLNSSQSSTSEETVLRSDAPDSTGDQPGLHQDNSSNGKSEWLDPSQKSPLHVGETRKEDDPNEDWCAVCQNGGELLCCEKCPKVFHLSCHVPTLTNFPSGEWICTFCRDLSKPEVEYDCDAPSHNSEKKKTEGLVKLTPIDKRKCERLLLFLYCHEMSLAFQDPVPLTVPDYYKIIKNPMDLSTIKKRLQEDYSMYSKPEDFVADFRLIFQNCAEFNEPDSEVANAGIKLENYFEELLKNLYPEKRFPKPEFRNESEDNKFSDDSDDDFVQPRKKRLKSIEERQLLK
UniProt Q96F44: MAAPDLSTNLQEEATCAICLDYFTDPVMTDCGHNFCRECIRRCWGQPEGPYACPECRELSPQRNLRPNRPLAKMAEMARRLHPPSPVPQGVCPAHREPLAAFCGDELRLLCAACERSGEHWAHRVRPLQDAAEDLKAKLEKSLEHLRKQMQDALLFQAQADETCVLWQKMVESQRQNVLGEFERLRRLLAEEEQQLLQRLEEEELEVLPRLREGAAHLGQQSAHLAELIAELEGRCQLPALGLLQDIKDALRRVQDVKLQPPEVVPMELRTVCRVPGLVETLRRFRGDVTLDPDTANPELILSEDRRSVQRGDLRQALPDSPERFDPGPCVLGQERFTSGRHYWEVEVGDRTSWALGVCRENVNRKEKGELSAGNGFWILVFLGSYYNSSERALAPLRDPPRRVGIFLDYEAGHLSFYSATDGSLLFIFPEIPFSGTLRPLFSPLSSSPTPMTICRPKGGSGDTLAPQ
UniProt Q9UPN9: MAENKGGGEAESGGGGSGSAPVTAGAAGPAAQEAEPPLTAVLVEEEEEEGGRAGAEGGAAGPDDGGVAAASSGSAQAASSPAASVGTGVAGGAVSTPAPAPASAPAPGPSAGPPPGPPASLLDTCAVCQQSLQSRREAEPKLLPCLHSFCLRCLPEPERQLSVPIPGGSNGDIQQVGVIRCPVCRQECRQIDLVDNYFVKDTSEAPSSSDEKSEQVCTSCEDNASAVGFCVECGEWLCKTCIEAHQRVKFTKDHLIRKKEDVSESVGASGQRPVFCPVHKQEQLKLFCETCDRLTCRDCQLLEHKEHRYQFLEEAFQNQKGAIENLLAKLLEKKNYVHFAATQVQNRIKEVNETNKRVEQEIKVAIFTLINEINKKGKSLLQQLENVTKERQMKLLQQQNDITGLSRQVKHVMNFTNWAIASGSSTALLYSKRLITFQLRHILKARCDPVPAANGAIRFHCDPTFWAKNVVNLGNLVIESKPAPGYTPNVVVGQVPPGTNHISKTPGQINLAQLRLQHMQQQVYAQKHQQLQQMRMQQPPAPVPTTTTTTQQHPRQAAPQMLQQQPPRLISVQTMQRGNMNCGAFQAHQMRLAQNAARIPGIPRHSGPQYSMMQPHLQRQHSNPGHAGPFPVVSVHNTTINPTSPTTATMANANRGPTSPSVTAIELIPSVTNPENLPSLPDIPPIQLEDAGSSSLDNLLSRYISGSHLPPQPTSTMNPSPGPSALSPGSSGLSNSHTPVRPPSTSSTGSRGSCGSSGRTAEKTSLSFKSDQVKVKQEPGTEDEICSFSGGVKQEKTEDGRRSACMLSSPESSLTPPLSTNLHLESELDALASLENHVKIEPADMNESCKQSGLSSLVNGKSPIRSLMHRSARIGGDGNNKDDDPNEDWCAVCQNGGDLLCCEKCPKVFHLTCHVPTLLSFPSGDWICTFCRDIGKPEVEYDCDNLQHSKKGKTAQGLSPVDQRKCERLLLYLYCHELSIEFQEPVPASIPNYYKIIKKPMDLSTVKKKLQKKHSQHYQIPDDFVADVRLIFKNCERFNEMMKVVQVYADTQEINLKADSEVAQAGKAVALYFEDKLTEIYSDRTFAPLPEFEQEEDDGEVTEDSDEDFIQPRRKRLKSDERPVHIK
UniProt Q9NXH9: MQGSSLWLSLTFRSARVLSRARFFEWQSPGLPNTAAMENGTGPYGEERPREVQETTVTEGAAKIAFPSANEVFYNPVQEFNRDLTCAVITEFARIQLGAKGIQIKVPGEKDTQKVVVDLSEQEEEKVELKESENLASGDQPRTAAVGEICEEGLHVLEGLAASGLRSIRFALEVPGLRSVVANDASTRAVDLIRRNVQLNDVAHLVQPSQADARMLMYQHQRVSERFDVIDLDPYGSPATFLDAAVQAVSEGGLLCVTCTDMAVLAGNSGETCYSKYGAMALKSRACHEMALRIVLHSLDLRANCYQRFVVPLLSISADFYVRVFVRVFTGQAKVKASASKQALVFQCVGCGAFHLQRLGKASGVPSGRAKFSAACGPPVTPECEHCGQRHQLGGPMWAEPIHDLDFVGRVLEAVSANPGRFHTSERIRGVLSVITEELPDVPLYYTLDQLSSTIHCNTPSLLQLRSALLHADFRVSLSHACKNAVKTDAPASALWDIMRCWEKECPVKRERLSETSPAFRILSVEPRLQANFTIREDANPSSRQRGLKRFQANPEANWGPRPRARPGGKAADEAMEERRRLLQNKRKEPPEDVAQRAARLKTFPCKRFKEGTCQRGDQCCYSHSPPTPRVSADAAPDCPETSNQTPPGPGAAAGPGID
UniProt Q14258, whole entry, looked up: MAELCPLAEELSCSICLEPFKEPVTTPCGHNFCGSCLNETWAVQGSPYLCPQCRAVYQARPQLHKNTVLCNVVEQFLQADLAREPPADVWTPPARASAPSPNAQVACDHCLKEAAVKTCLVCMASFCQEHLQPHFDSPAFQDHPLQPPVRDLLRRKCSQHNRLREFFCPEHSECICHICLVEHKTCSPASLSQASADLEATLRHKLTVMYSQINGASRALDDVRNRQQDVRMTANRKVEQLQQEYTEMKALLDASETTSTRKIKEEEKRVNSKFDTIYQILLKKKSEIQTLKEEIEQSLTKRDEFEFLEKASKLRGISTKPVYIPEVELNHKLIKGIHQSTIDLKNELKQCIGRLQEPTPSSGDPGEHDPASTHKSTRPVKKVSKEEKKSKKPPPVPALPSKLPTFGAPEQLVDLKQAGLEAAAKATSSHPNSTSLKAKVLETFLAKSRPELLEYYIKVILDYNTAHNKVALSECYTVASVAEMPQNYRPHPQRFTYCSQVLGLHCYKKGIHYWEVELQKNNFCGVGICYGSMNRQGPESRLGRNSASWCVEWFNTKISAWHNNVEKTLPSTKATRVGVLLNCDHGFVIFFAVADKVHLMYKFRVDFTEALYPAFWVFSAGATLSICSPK
UniProt Q9Y4K3: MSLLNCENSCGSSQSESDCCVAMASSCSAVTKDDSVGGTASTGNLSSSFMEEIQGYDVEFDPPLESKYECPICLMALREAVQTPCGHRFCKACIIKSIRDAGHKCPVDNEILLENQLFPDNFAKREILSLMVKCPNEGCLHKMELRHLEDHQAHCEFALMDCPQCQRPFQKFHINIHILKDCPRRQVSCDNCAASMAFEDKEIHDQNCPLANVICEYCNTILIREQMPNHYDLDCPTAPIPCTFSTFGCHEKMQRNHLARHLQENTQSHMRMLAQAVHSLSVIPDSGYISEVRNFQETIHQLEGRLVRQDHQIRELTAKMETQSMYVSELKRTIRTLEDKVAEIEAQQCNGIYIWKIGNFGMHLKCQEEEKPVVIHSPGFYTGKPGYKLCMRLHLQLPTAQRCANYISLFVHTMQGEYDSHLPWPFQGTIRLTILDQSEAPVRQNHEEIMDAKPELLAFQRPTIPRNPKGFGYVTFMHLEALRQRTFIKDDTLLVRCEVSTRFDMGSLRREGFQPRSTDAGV
UniProt Q6Q0C0: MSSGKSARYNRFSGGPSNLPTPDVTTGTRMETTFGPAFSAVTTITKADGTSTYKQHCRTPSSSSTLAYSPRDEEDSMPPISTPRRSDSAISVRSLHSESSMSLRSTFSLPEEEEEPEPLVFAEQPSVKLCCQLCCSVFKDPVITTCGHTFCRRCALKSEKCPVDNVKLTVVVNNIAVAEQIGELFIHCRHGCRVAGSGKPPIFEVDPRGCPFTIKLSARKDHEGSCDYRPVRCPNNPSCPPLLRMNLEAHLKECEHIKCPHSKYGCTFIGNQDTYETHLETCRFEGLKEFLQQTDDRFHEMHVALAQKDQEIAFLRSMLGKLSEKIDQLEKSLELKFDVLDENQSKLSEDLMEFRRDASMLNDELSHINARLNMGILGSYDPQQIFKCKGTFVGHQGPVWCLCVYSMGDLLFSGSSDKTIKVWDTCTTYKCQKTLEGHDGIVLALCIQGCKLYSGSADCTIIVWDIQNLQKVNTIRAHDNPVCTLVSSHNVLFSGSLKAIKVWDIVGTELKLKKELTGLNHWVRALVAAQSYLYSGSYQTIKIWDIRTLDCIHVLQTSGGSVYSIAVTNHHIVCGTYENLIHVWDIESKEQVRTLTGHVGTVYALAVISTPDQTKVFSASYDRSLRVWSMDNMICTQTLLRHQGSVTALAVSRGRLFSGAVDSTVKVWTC
UniProt O14545: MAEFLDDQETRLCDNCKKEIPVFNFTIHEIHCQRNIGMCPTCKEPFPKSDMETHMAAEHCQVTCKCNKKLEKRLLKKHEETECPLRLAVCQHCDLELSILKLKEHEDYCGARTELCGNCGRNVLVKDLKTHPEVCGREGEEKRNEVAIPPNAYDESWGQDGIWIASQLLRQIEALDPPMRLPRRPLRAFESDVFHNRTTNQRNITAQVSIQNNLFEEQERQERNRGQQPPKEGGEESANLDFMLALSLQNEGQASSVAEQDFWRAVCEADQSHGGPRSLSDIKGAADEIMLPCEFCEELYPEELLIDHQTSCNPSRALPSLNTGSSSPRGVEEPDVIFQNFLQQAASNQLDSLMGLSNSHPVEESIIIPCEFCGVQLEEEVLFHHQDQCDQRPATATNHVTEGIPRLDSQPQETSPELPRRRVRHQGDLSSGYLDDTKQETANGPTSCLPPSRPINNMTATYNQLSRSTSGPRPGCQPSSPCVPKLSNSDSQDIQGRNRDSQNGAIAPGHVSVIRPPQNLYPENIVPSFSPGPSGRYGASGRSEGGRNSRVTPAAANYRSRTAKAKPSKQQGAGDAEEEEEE

Compound: CC1Cc2ccccc2N1C(=O)C1CCCN(C1)C(=O)CCl (mixture of isomers) [TRIM25 ligand 11 (diastereomer mixture)]
Assay: probe-labelled cysteine peptide fold change vs DMSO (competition) (log2 fold change); higher = less target engagement (more negative = stronger competition)
Conditions: 10 µM; THP-1; incubation time: 4 h
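Note: competitive chemoproteomic profiling in live THP-1 cells with an iodoacetamide desthiobiotin (IA-DTB) probe, comparing probe-labelled peptide intensities in compound-treated cells against DMSO-treated controls.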

Target | probe-labelled cysteine peptide fold change
TRAPPC9_Q96Q05_1035_EAVAACQVGDPVR (UniProt Q96Q05) | 0.253
TRMT1L_Q7Z2T5_265_QLIFCTLAALAEER (UniProt Q7Z2T5) | -0.131
TRIM24_O15164_73_LLPCLHSFCQR (UniProt O15164) | 0.00462
TRAF2_Q12933_182_AHHEVCPK (UniProt Q12933) | -0.0615
TRIM26_Q12899_36_DPVTIDCGHVFCR (UniProt Q12899) | 0.267
TRAPPC10_P48553_729_CSHVTLEPGANQITFR (UniProt P48553) | -0.0437
TRIM11_Q96F44_236_CQLPALGLLQDIK (UniProt Q96F44) | -0.0796
TRIM33_Q9UPN9_582_GNMNCGAFQAHQMR (UniProt Q9UPN9) | -0.131
TRIM28_Q13263_717_VLLALFCHEPCRPLHQLATDSTFSLDQPGGTLDLTLIR (UniProt Q13263) | -0.498
TRIM24_O15164_127+134_CPVCSQECAER (UniProt O15164) | 0.103
TRERF1_Q96PN7_514_LTCSICLK (UniProt Q96PN7) | 0.194
TRMT1_Q9NXH9_150_TAAVGEICEEGLHVLEGLAASGLR (UniProt Q9NXH9) | 0.105
TPP1_O14773_365_GLTLLFASGDSGAGCWSVSGR (UniProt O14773) | -0.14
TRIM25_Q14258_176_LREFFCPEHSECICHICLVEHK (UniProt Q14258) | -0.0696
TRIM25_Q14258_176_EFFCPEHSECICHICLVEHK (UniProt Q14258) | 0.103
TRAF6_Q9Y4K3_85_EAVQTPCGHR (UniProt Q9Y4K3) | 0.00472
TRMT1_Q9NXH9_351_QALVFQCVGCGAFHLQR (UniProt Q9NXH9) | 0.147
TRIP12_Q14669_1411_DCVGGK (UniProt Q14669) | -0.0858
TRIM25_Q14258_506_FTYCSQVLGLHCYK (UniProt Q14258) | 0.127

Target | probe-labelled cysteine peptide fold change
TRAPPC8_Q9Y2L5_1330+1341_SLCLVPVTLLLSNCSK (UniProt Q9Y2L5) | -0.297
TRA2A_Q13595_120_ANPDPNTCLGVFGLSLYTTER (UniProt Q13595) | 0.142
TRIP6_Q15654_307_VFHVGCFVCSTCR (UniProt Q15654) | 0.0462
TRAF6_Q9Y4K3_134_CPNEGCLHK (UniProt Q9Y4K3) | -0.0221
TRAF7_Q6Q0C0_282_YGCTFIGNQDTYETHLETCR (UniProt Q6Q0C0) | 0.432
TRIP6_Q15654_282_LVHDMNHPPSGEYFGQCGGCGEDVVGDGAGVVALDR (UniProt Q15654) | 0.0894
TRMT1L_Q7Z2T5_491_KIQYLIHCQWCEER (UniProt Q7Z2T5) | 0.07
TRIM33_Q9UPN9_145+150_LLPCLHSFCLR (UniProt Q9UPN9) | -0.0317
TPP2_P29144_967_GAGPGCYLAGSLTLSK (UniProt P29144) | -0.205
TRIOBP_Q9H2D6_2233_CQQEGQELLR (UniProt Q9H2D6) | -0.022
TRIM28_Q13263_221_HEPLVLFCESCDTLTCR (UniProt Q13263) | 0.0223
TRIM33_Q9UPN9_153_CLPEPER (UniProt Q9UPN9) | -0.0672
TRAPPC4_Q9Y296_195_CELFDQNLK (UniProt Q9Y296) | 0.157
TPRN_Q4KMQ1_399_SPLEVEAQWAVEEGACPR (UniProt Q4KMQ1) | -0.211
TRA2B_P62995_118+119_ANPDPNCCLGVFGLSLYTTER (UniProt P62995) | -0.00483
TRIM25_Q14258_107_ASAPSPNAQVACDHCLK (UniProt Q14258) | 0.0339
TRMT10C_Q7L0Y3_246_NVDPFHIYFCNLK (UniProt Q7L0Y3) | -0.0165
TRIM36_Q9NQ86_521_CGYNNEHLLLNLKR (UniProt Q9NQ86) | -0.227
TRAFD1_O14545_83_KHEETECPLR (UniProt O14545) | 0.0494
